In US20250296961A1, “ANTIMICROBIAL PEPTIDES FOR REMINERALIZATION OF TEETH AND PREVENTION OF DENTAL CARIES” (The University of Hong Kong, priority 2021, published 2025):
Not every detail of the peptide structures is certain; ends, links or a residue may be inferred. Residues, ends and D or L forms follow the SMILES beside them. No end group written: not given here.

Columns and labels:
[1] = system: S. mutans; assay: Anti-S. mutans adhesion ability on peptide-coated enamel (Example 2); format: cell-based, S. mutans (ATCC 35668); details: for Viable counts of S. mutans on peptide-coated enamel surfaces: 8×MBC coated; for Anti-adhesion (effective concentration as multiple of MBC) / Anti-adhesion (effective concentration): S. mutans adhesion on coated enamel
[2] = General properties of peptides in HEPES; format: physicochemical
[3] = Remineralization assay of peptides (Example 2; FE-SEM, Vicker's hardness); parameters: species or system human; details: summary grade; MBC

Compound	Viable counts of S. mutans on peptide-coated enamel surfaces ([1]; 5 h) [CFU mL^−1]	Anti-adhesion (effective concentration as multiple of MBC) [1]	Anti-adhesion (effective concentration) [1] [μM mL^−1]	Viable counts of S. mutans on coated enamel surface vs control group ([1]; 4×MBC coated, 5 h)	Isoelectric point (pI) [2]	Appearance in HEPES ([2]; 1 μM mL^−1, pH=7)	Appearance in HEPES ([2]; 16 μM mL^−1, pH=7, after 10 minutes of dissolving)	Promoting remineralization [3]
CC(C)C[C@H](NC(=O)[C@H](CCCNC(=N)N)NC(=O)[C@H](Cc1ccccc1)NC(=O)[C@H](Cc1ccccc1)NC(=O)[C@@H](NC(=O)[C@H](COP(=O)(O)O)NC(=O)[C@@H](N)COP(=O)(O)O)[C@@H](C)O)C(=O)N[C@@H](Cc1ccccc1)C(=O)N[C@@H](CC(N)=O)C(=O)N[C@@H](CCCNC(=N)N)C(=O)N[C@@H](C)C(=O)N[C@@H](CCCCN)C(=O)N[C@@H](CCCNC(=N)N)C(=O)N[C@@H](Cc1c[nH]cn1)C(=O)N[C@@H](Cc1c[nH]cn1)C(=O)NCC(=O)N[C@@H](Cc1ccc(O)cc1)C(=O)N[C@@H](CCCCN)C(=O)N[C@@H](CCCNC(=N)N)C(=O)N[C@@H](CCCCN)C(=O)N[C@@H](Cc1ccccc1)C(=O)N[C@@H](Cc1c[nH]cn1)C(=O)O [DPS-C8-P-113] (HELM PEPTIDE1{[N[C@@H](COP(=O)(O)O)C(=O)[*:2]].[O=C([C@H](COP(=O)(O)O)N[*:1])[*:2]].T.F.F.R.L.F.N.R.A.K.R.H.H.G.Y.K.R.K.F.H}$$$$V2.0)	1.02E+06	(4 × × MBC	1					
DSSDSSDSSDSSDSSDSSDSSDSSTFFRLFNRAKRHHGYKRKFH [8DSS-C8-P-113]	2.49E+05	(4 × × MBC						
TFFRLFNRAKRHHGYKRKFH [Peptide C8-P-113]	1.31E+05	(8 × × MBC	0.25	not significantly different	12.15	colourless transparent liquids	colourless transparent liquid	−
